{"source": "patent US11052157B2", "about": "(priority 2014, dated 2021)", "key": {"[1]": {"system": "intact, bacterially derived minicells", "assay": "Loading of compounds into minicells by the small-scale protocol, extraction and HPLC quantification", "set-up": "species or system Salmonella enterica serovar Typhimurium", "conditions": "for molecules (copies) packaged per minicell / quantity packaged within the minicells (HPLC): small-scale protocol; for molecules (copies) packaged per minicell: co-incubation, from HPLC content by Avogadro's number, MTX: 300 μg/ml, overnight; for quantity packaged within the minicells (HPLC): loading solution FLUTAX-1 200 μg/ml, FCP 300 μg/ml, paclitaxel 600 pg/ml (pH 3, 37° C. overnight), TF.Pac 1 mg/ml"}, "[2]": {"system": "intact, bacterially derived minicells", "assay": "HPLC quantification (UV250nm and relative fluorescence) of doxorubicin loading in the presence of folic acid", "set-up": "species or system Salmonella enterica serovar Typhimurium", "conditions": "0, 50, 400 μg/ml folic acid in the loading solution"}}, "note": "Entries after “also recorded” stand apart in the source; their conditions may differ.", "data": [{"compound": "CC(=O)O[C@H]1C(=O)[C@@]2(C)[C@H]([C@H](OC(=O)c3ccccc3)[C@]3(O)C[C@H](OC(=O)[C@H](O)[C@@H](NC(=O)c4ccccc4)c4ccccc4)C(C)=C1C3(C)C)[C@]1(OC(C)=O)CO[C@@H]1C[C@@H]2O", "note": "[paclitaxel]", "values": [{"measurement": "fold fewer molecules per minicell than for FCP and FLUTAX-1, respectively", "setting": "[1]; paclitaxel versus its fluorescent derivatives", "value": "110-130 fold"}, {"measurement": "paclitaxel-loading efficiency with additional approaches", "setting": "[1]; varying solvents, buffers, pH, cyclodextrin complexes, hydrotropes, membrane-destabilization methods", "value": "0-10 ng per 1×10^9 minicells"}]}, {"compound": "2′-B-alanyl taxol formate [TF.Pac]", "values": [{"measurement": "loading efficiency, fold less than for FLUTAX-1", "setting": "[1]", "value": "~5.4", "unit": "fold"}, {"measurement": "molecules (copies) packaged per minicell", "setting": "[1]", "value": "~50,000 molecules per minicell"}, {"measurement": "quantity packaged within the minicells (HPLC)", "setting": "[1]", "value": 78, "unit": "ng per 1×10^9 minicells"}]}, {"compound": "doxorubicin", "values": [{"measurement": "effect of folic acid (fluorescence quencher) on loading of doxorubicin into minicells", "setting": "[2]", "value": "affect adversely the loading of doxorubicin into minicells; also recorded: dose-dependently decreases the loading efficiency"}]}, {"compound": "CC(=O)O[C@H]1C(=O)[C@]2(C)[C@@H](OC(=O)[C@H](C)NC(=O)c3ccc4c(c3)C(=O)OC43c4ccc(O)cc4Oc4cc(O)ccc43)C[C@H]3OC[C@@]3(OC(C)=O)[C@H]2[C@H](OC(=O)c2ccccc2)[C@]2(O)C[C@H](OC(=O)[C@H](O)[C@@H](NC(=O)c3ccccc3)c3ccccc3)C(C)=C1C2(C)C", "note": "[FLUTAX-1]", "values": [{"measurement": "fold more molecules per minicell than paclitaxel", "setting": "[1]; relative to unmodified paclitaxel (Example 9)", "value": 127, "unit": "fold"}, {"measurement": "molecules (copies) packaged per minicell", "setting": "[1]", "value": "~270,000 molecules per minicell"}, {"measurement": "quantity packaged within the minicells (HPLC)", "setting": "[1]", "value": 570, "unit": "ng per 1×10^9 minicells"}]}]}
